Measured data: PubChem BioAssay AID1224826 (NIAID, 2016)

Aim: 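Genes that change LPS-induced Tnf promoter activity in mouse macrophages when knocked down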 (primary screen)
Cells: RAW264.7 G9 macrophages from mouse bearing reporters for p65 (GFP) and the Tnf promoter (mCherry)
Reagents: siRNA pool against mouse genes, 100 nM
Timing: 16 h of LPS stimulation, after 2 days of siRNA transfection
Treatment: bacterial lipopolysaccharide (Salmonella minnesota R595), 10 ng/ml
Measured: 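Imaged Tnf reporter mCherry in nuclei, minus background, normalised per plate to the median and expressed as robust z-scores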
Scale: Tnf reporter robust z-score: higher = stronger Tnf promoter reporter signal after LPS
Call rule: 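a well counts as active at a score of -1.3 or below (Tlr4 knock-down control median) or above 3 (raised signal); controls and wells holding fewer than 50 cells are excluded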
Calls: active = Tnf reporter clearly lowered or raised; inactive = no clear change in Tnf reporter
The deposit covers about 17,000 reagents; below is an unselected part. About 1,110 of them (6.6%) were called active. 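Active means lowered or raised reporter signal; replicate intensities are raw and not normalised per plate.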 Further read-outs or replicates are left out here.

The opening 2 records as a preview:
Zfp319 [SID315475669]: Tnf reporter robust z-score = 0.37; fewer than 50 cells in well = enough cells in well; outcome = inactive
Rbm8a [SID315472011]: Tnf reporter robust z-score = 1.67; fewer than 50 cells in well = enough cells in well; outcome = inactive

The listing, repeating the preview:
Zfp319 [SID315475669]: Tnf reporter robust z-score = 0.37; fewer than 50 cells in well = enough cells in well; outcome = inactive
Rbm8a [SID315472011]: Tnf reporter robust z-score = 1.67; fewer than 50 cells in well = enough cells in well; outcome = inactive
Erlec1 [SID315472622]: Tnf reporter robust z-score = -0.13; fewer than 50 cells in well = enough cells in well; outcome = inactive
Sdf2 [SID315469151]: Tnf reporter robust z-score = 0.46; fewer than 50 cells in well = enough cells in well; outcome = inactive
Tox [SID315479904]: Tnf reporter robust z-score = -1.54; fewer than 50 cells in well = enough cells in well; outcome = active
Psmf1 [SID315478653]: fewer than 50 cells in well = fewer than 50 cells per well; well left out of calls; outcome = inactive
Prss40 [SID315469668]: fewer than 50 cells in well = fewer than 50 cells per well; well left out of calls; outcome = inactive
Six3os1 [SID315475517]: Tnf reporter robust z-score = 2.84; fewer than 50 cells in well = enough cells in well; outcome = inactive
Sec23a [SID315469160]: Tnf reporter robust z-score = 2.55; fewer than 50 cells in well = enough cells in well; outcome = inactive
Grm4 [SID315480815]: Tnf reporter robust z-score = -0.12; fewer than 50 cells in well = enough cells in well; outcome = inactive
Clip4 [SID315475619]: Tnf reporter robust z-score = 0.88; fewer than 50 cells in well = enough cells in well; outcome = inactive
Plppr4 [SID315478743]: Tnf reporter robust z-score = -0.77; fewer than 50 cells in well = enough cells in well; outcome = inactive
Kctd6 [SID315474230]: Tnf reporter robust z-score = 0.62; fewer than 50 cells in well = enough cells in well; outcome = inactive
B230220B15Rik [SID315481384]: Tnf reporter robust z-score = 0.25; fewer than 50 cells in well = enough cells in well; outcome = inactive
